# Values from PubChem BioAssay AID1224829 (NIAID, 2016).
# Purpose: 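Secondary check of hits that alter LPS-induced p65 translocation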 (follow-up of hits)
# Cell system: mouse RAW264.7 G9 macrophage reporter cells
# Reagent: single siRNA against mouse genes, 100 nM
# Duration: 2 days of siRNA knock-down, then 40 min of LPS before fixing
# Treatment: LPS (Salmonella minnesota R595) at 10 ng/ml
# Read-out: 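High-content images after 40 min LPS exposure; GFP-p65 nucleus to surrounding ring signal ratio, normalised to plate median and non-targeting control wells, expressed as z-score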
# Scale: p65 translocation z-score and gene median z-score, per vendor: higher = more nuclear NF-kappaB p65 after LPS
# Rule for the call: 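Active means the replicate-mean z-score lies beyond plus or minus 2, in either direction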
# Calls: active = changed p65 translocation (either direction); inactive = no clear change
# Shown is a random part of about 3,800 deposited reagents. 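Calls cover raised and lowered translocation; gene median uses one vendor's three siRNAs; qiagen siRNAs acted more weakly than ambion siRNAs.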 A number with no mark means an inactive call. The numbers tell different reagents against one gene apart. No sequences are given here.
Gene,reagent no.,siRNA vendor or control pool,"p65 translocation z-score, replicate mean","p65 translocation z-score, replicate 1","p65 translocation z-score, replicate 2","gene median z-score, per vendor"
Atp1b1,1,ambion single siRNA,-0.422,-0.552,-0.291,-0.291
Atp1b1,2,ambion single siRNA,1.28,2.28,0.279,-0.291
Atp1b1,3,ambion single siRNA,-2.32 (active),-2.32,,-0.291
Atp1b1,4,qiagen single siRNA,1.37,0.533,2.22,0.173
Atp1b1,5,qiagen single siRNA,0.249,-0.186,0.683,0.173
Atp1b1,6,qiagen single siRNA,-3.41 (active),-3.39,-3.44,0.173
Disp2,1,ambion single siRNA,-1.19,-1.54,-0.848,-2.78
Disp2,2,ambion single siRNA,-5.31 (active),-5.54,-5.07,-2.78
Disp2,3,ambion single siRNA,-2.69 (active),-1.36,-4.02,-2.78
Disp2,4,qiagen single siRNA,1.54,0.309,2.76,0.142
Disp2,5,qiagen single siRNA,0.889,-1.04,2.82,0.142
Disp2,6,qiagen single siRNA,-1.73,-0.0252,-3.43,0.142
Or2n1d,1,ambion single siRNA,-1.53,-1.53,,-4.13
Or2n1d,2,ambion single siRNA,-6.66 (active),-7.93,-5.39,-4.13
Or2n1d,3,ambion single siRNA,-2.87 (active),-2.87,,-4.13
Or2n1d,4,qiagen single siRNA,-0.311,-0.288,-0.333,0.793
Or2n1d,5,qiagen single siRNA,2.35 (active),1.33,3.36,0.793
Or2n1d,6,qiagen single siRNA,1.18,2.11,0.254,0.793
Moap1,1,ambion single siRNA,-1.07,-1.05,-1.08,-1.07
Moap1,2,ambion single siRNA,0.0133,0.257,-0.23,-1.07
Moap1,3,ambion single siRNA,-2.53 (active),-2.48,-2.59,-1.07
Moap1,4,qiagen single siRNA,-0.704,-0.165,-1.24,-0.888
Moap1,5,qiagen single siRNA,-0.117,-0.534,0.301,-0.888
Moap1,6,qiagen single siRNA,-1.71,-1.89,-1.54,-0.888
Or5w15,1,ambion single siRNA,-4.02 (active),-4.88,-3.15,-2.63
Or5w15,2,ambion single siRNA,0.947,0.387,1.51,-2.63
Or5w15,3,ambion single siRNA,-2.78 (active),-3.46,-2.1,-2.63
Or5w15,4,qiagen single siRNA,0.212,0.257,0.167,0.212
Or5w15,5,qiagen single siRNA,0.372,-0.115,0.859,0.212
Or5w15,6,qiagen single siRNA,0.709,0.124,1.29,0.212

Hits (from the list above):
Gene,reagent no.,siRNA vendor or control pool,"p65 translocation z-score, replicate mean","p65 translocation z-score, replicate 1","p65 translocation z-score, replicate 2","gene median z-score, per vendor"
Atp1b1,3,ambion single siRNA,-2.32 (active),-2.32,,-0.291
Atp1b1,6,qiagen single siRNA,-3.41 (active),-3.39,-3.44,0.173
Disp2,2,ambion single siRNA,-5.31 (active),-5.54,-5.07,-2.78
Disp2,3,ambion single siRNA,-2.69 (active),-1.36,-4.02,-2.78
Or2n1d,2,ambion single siRNA,-6.66 (active),-7.93,-5.39,-4.13
Or2n1d,3,ambion single siRNA,-2.87 (active),-2.87,,-4.13
Or2n1d,5,qiagen single siRNA,2.35 (active),1.33,3.36,0.793
Moap1,3,ambion single siRNA,-2.53 (active),-2.48,-2.59,-1.07
Or5w15,1,ambion single siRNA,-4.02 (active),-4.88,-3.15,-2.63
Or5w15,3,ambion single siRNA,-2.78 (active),-3.46,-2.1,-2.63

Additional reagents follow.
Gene,reagent no.,siRNA vendor or control pool,"p65 translocation z-score, replicate mean","p65 translocation z-score, replicate 1","p65 translocation z-score, replicate 2","gene median z-score, per vendor"
Usp8,1,ambion single siRNA,2.46 (active),2.64,2.29,1.05
Usp8,2,ambion single siRNA,1.1,2.39,-0.197,1.05
Usp8,3,ambion single siRNA,-3.14 (active),-2.59,-3.68,1.05
Usp8,4,qiagen single siRNA,-1.07,-0.789,-1.34,-1.07
Usp8,5,qiagen single siRNA,1.04,1.67,0.401,-1.07
Usp8,6,qiagen single siRNA,-5.07 (active),-3.78,-6.36,-1.07
Brpf1,1,ambion single siRNA,0.891,0.281,1.5,0.0536
Brpf1,2,ambion single siRNA,0.838,1.85,-0.174,0.0536
Brpf1,3,ambion single siRNA,-3.94 (active),-4.3,-3.58,0.0536
Brpf1,4,qiagen single siRNA,-4.43 (active),-3.37,-5.48,-3.26
Brpf1,5,qiagen single siRNA,-3.15 (active),-3.15,,-3.26
Brpf1,6,qiagen single siRNA,-1.71,-1.71,,-3.26
Srrt,1,ambion single siRNA,-2.98 (active),-3.44,-2.51,-2.87
Srrt,2,ambion single siRNA,-4.12 (active),-4.99,-3.24,-2.87
Srrt,3,ambion single siRNA,-1.59,-2.34,-0.839,-2.87
Srrt,4,qiagen single siRNA,0.181,0.312,0.0499,-0.359
Srrt,5,qiagen single siRNA,-1.19,-0.767,-1.61,-0.359
Srrt,6,qiagen single siRNA,,,,-0.359
Cbln2,1,ambion single siRNA,-2.97 (active),-2.36,-3.59,-1.77
Cbln2,2,ambion single siRNA,-2.14 (active),-3.1,-1.18,-1.77
Cbln2,3,ambion single siRNA,1.97,4.28,-0.334,-1.77
Cbln2,4,qiagen single siRNA,4.07 (active),3.5,4.64,-0.328
Cbln2,5,qiagen single siRNA,-0.328,-0.472,-0.185,-0.328
Cbln2,6,qiagen single siRNA,-2.29 (active),-1.6,-2.97,-0.328
Klhdc3,1,ambion single siRNA,-0.531,-0.946,-0.116,-0.531
Klhdc3,2,ambion single siRNA,0.266,0.631,-0.0988,-0.531
Klhdc3,3,ambion single siRNA,-2.94 (active),-2.95,-2.93,-0.531
Klhdc3,4,qiagen single siRNA,4.43 (active),2.64,6.22,2.67
Klhdc3,5,qiagen single siRNA,2.49 (active),2.7,2.27,2.67
Klhdc3,6,qiagen single siRNA,1.27,-0.404,2.94,2.67
Raf1,1,ambion single siRNA,-2.09 (active),-1.9,-2.29,-2.09
Raf1,2,ambion single siRNA,-0.336,0.0377,-0.71,-2.09
Raf1,3,ambion single siRNA,-3.08 (active),-2.61,-3.54,-2.09
Raf1,4,qiagen single siRNA,0.75,1.43,0.0732,-0.00483
Raf1,5,qiagen single siRNA,-0.505,-0.926,-0.0829,-0.00483
Raf1,6,qiagen single siRNA,,,,-0.00483
